Test results published in PubChem BioAssay AID504444 (National Center for Advancing Translational Sciences (NCATS), 2011).
Out of some 360,000 compounds screened, about 7,500 (2.1%) were called active. Inconclusive means that the source gave no clear call. Such entries were picked first, then a sample of the others. The call rests on the fitted dose curve; in most records, active means well fitted inhibition curve with a large enough effect; inconclusive means small, poorly fitted or top-dose-only effect, or effect the other way; inactive means flat fitted curve, though single readings scatter. A potency beside an inconclusive call is a rough fit, not a confirmed value.

assay: Nrf2 qHTS screen for inhibitors; details: A549 ARE-Fluc reporter, luciferase luminescence, 18-24 h; activity change, negative = inhibition: at 46 µM (top of the series); further: nearly all actives have a fitted effect of over 60% in size
Procedure, shortened: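 Two sequential reads on A549 ARE_Fluc cells exposed to compound for 18-24 h: a CellTiter-Fluor fluorescence read for viability, then a luciferase luminescence read for Nrf2/ARE activity.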
On the % scale 0 is the no-effect control and ±100 the full control effect; potency means the concentration at half of the fitted maximal effect.

Row | SMILES | Potency | activity change, negative = inhibition
1 | Cc1ccc(NC(=O)c2sccc2C)cc1[N+](=O)[O-] | inconclusive: 2.59 µM [activator, full curve] | –
2 | COc1ccccc1N1CCN(C(=O)c2cc(=O)c3cc(C)cc(C)c3o2)CC1 | inconclusive: 1.64 µM [activator, full curve, poor fit] | –
3 | Cc1cc2c3c([nH]c2cc1S(=O)(=O)N1CCC2(CC1)OCCO2)CC(C)(C)CC3=O | active: 23.1 µM | –
4 | Cc1cc(C)c(C)c(S(=O)(=O)N2CCN(CC(=O)c3c(N)n(Cc4ccccc4)c(=O)n(C)c3=O)CC2)c1C | inconclusive: 18.4 µM [falling, single point] | –
5 | COc1ccc(-c2nnn(CC(=O)N(Cc3cccs3)C(C)C(=O)NC3CCCC3)n2)cc1OC (centres undefined) | inconclusive: 20.6 µM [falling, partial curve, poor fit] | –
6 | O=C(Cc1ccc(-n2c(=O)c3sccc3n(Cc3ccc(F)cc3)c2=O)cc1)NCc1ccco1 | inconclusive: 20.6 µM [falling, single point] | –
7 | NS(=O)(=O)c1ccc(CCNC(=O)NC2(C(F)(F)F)Oc3ccccc3O2)cc1 | inconclusive: 10.3 µM [activator, partial curve] | –
8 | Cc1cccc(NC(=S)NNc2ncc(C(F)(F)F)cc2Cl)c1 | inconclusive: 29.1 µM [falling, single point] | –
9 | CN(C)c1ccc(N2C(=O)CC(Sc3ccccc3C(=O)O)C2=O)cc1 (centres undefined) | – | inactive: 2.05%
10 | Cn1c(=O)c2c(-c3ccc(Br)cc3)n(CCc3ccccc3)cc2n(C)c1=O | inconclusive: 29.1 µM [falling, single point] | –
11 | CC(C)N(C(=O)[C@H]1C[C@H](CC(=O)NCc2ccco2)C(=O)N2CCc3c([nH]c4ccc(Cl)cc34)[C@]12C)C(C)C | inconclusive: 29.1 µM [falling, single point] | –
12 | COc1ccc(NC(=O)c2cc3c(s2)CCC3)cc1S(=O)(=O)N1CCOCC1 | inconclusive: 29.1 µM [falling, single point] | –
13 | COc1ccc(C2=CC(=O)C[C@H](c3ccc(F)cc3)C2)c(F)c1F | inconclusive: 18.4 µM [falling, partial curve, poor fit] | –
14 | COc1ccc(NC(=O)Cn2c(C(C)C)nc(C)cc2=O)cc1Cl | inconclusive: 6.51 µM [falling, single point] | –
15 | COc1ccc(C2=Nn3c(nnc3-c3ccncc3)SC2)cc1 | inconclusive: 4.11 µM [falling, full curve, poor fit] | –
16 | CCN1C(C(=O)c2ccccc2)=C(OC(=O)c2ccc(OC)cc2)c2ccccc2S1(=O)=O | inconclusive: 29.1 µM [falling, single point] | –
17 | NCCc1cnc[nH]1 | inactive | –
18 | CN(C)/C=C/C(=O)c1cnc(-c2ccccn2)s1 | inconclusive: 18.4 µM [activator, partial curve] | –
19 | O=C(O)c1ccc(Nc2ccc([N+](=O)[O-])c3nonc23)cc1 | – | inactive: 9.18%
20 | Cn1ncc(Cl)c1C(=O)Nc1cccc(Cl)c1 | inconclusive: 14.6 µM [falling, partial curve, poor fit] | –
21 | O=C(NCc1n[nH]c(=S)n1-c1ccc(F)cc1)c1ccc(S(=O)(=O)N2CCOCC2)cc1 | inconclusive: 2.59 µM [falling, partial curve, poor fit] | –
22 | CCC1COCCS(=O)(=O)N1Cc1ccccc1C (centres undefined) | – | inactive: -11.2%

Row | SMILES | Potency | activity change, negative = inhibition
23 | CN1CCc2nc3sc(C(=O)Nc4c(F)cccc4F)c(N)c3cc2C1 | inconclusive: 1.64 µM [activator, partial curve, poor fit] | –
24 | Cc1ccccc1C(=O)NC=C1C(=O)OC(C)(C)OC1=O | inconclusive: 20.6 µM [activator, single point] | –
25 | NS(=O)(=O)c1ccc(Cl)c(S(N)(=O)=O)c1 | – | inactive: 6.17%
26 | COc1ccc(C(=O)c2sc(Nc3ccccc3)nc2N)cc1OC | – | inactive: -9.35%
27 | Cc1ccc(C)c(C(C)NC(=S)NC2CCCCC2)c1 (centres undefined) | inconclusive: 18.4 µM [falling, single point] | –
28 | COc1ccccc1NC(=O)Nc1nc(CC(=O)NCc2c(F)cccc2F)cs1 | inconclusive: 9.2 µM [falling, partial curve, poor fit] | –
29 | O=C1/C(=C/c2cccs2)CCC/C1=C\c1cccs1 | inconclusive: 11.6 µM [activator, partial curve] | –
30 | C=CCC1(CC=C)CCCN1C(=O)c1cc(COc2ccc(-n3cncn3)cc2)on1 | active: 8.2 µM | –
31 | CCOc1ccc(NC(=O)Cn2c(=O)c(CNc3ccc(OC)cc3)cc3ccc(OC)cc32)cc1 | – | inactive: -0.243%
32 | COc1ccc(CN2CN=C(Nc3nc4ccccc4s3)NC2)cc1 | inconclusive: 0.517 µM [falling, partial curve, poor fit] | –
33 | CNc1nnc(-c2cc3ccccc3oc2=O)s1 | inconclusive: 2.91 µM [activator, single point] | –
34 | COc1ccc2c(c1)C(=C(C#N)C#N)C(=O)N2CCc1ccccc1 | inconclusive: 5.8 µM [falling, partial curve, poor fit] | –
35 | Cc1oc(-c2ccccc2Cl)nc1CS(=O)(=O)CC(=O)NC(C)CCc1ccccc1 (centres undefined) | – | inactive: 6.19%
36 | CCOc1ccc(C(C)NC(=O)CCC(=O)O)cc1 (centres undefined) | – | inactive: 5.36%
37 | COC(=O)c1cc(O)cc(OC)c1Oc1cc(C)cc(O)c1C(=O)O | inconclusive: 0.164 µM [falling, full curve] | –
38 | O=C(N/N=C/c1cccc(Oc2ccccc2)c1)c1cccc(Br)c1 | active: 18.4 µM | –
39 | CCOC(=O)N1CCN(CC(O)COc2ccc(CC)cc2)CC1 (centres undefined) | – | inactive: -8.23%
40 | CCOC(=O)C1CCCN(C(=O)CN2C(=O)/C(=C/c3ccc(OC)cc3)Oc3ccccc32)C1 (centres undefined) | inconclusive: 16.4 µM [falling, single point] | –
41 | COc1ccc(CCNC(=O)C/C(C)=N/NC(=O)COc2ccc(C)cc2Br)cc1OC | – | inactive: -25.3%
42 | CC(=O)C1=C(O)C(=O)N(C)C1c1ccccc1[N+](=O)[O-] (centres undefined) | – | inactive: -7.53%
43 | COc1ccc(OC)c(NC(=O)C(NS(=O)(=O)c2ccc3c(c2)CCCC(=O)N3)C(C)C)c1 (centres undefined) | inconclusive: 29.1 µM [activator, single point] | –
44 | Cc1onc(-c2c(Cl)cccc2Cl)c1C(=O)N1CCCc2ccccc21 | inconclusive: 23.1 µM [falling, single point] | –

Part of the list above, field by field:
CCOc1ccc(NC(=O)Cn2c(=O)c(CNc3ccc(OC)cc3)cc3ccc(OC)cc32)cc1
  activity change, negative = inhibition: inactive: -0.243%
COc1ccc(CN2CN=C(Nc3nc4ccccc4s3)NC2)cc1
  Potency: inconclusive: 0.517 µM [falling, partial curve, poor fit]
